Data taken from the M2OR odorant receptor database.
Numbering of substitutions follows the chain as printed. The entries are a selection whose mix differs from that of the whole data set. Calls are pooled over several reports, among them a noisy single-well screen. Some of the results follow.

Chains of the proteins cited; added tags and fusions are not shown. A line that says so, or that is headed by a name, gives the form on record, which may keep a tag or linker.
O51L1, as listed by the source: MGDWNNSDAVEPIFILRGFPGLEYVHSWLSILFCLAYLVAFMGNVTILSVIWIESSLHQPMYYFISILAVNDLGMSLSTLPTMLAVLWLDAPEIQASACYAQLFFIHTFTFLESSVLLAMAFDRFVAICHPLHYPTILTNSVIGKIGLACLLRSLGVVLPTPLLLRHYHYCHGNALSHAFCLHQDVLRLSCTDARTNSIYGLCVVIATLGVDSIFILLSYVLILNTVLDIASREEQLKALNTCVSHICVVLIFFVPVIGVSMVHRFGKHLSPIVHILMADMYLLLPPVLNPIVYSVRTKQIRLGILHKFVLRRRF

What was measured:
Conditions in all cases: stereoisomer not certain
O51F1 = system: T1, O51F1
T1 sequence (whole entry): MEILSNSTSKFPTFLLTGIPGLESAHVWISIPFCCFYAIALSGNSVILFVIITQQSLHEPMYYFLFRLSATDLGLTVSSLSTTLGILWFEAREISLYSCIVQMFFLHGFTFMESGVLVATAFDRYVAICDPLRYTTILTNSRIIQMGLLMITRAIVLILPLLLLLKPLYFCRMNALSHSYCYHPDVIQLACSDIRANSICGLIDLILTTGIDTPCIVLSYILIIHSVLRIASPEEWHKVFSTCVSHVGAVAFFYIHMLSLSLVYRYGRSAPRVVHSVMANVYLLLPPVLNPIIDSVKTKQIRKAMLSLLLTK
Summary of the method: (§1)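 Whether a receptor–molecule pair is responsive (active) rests on the original authors' judgment that its measured signal was statistically different from baseline. Pairs without that judgment are non-responsive (inactive). Sources used varied assay methods, commonly transient luciferase assays in mammalian cell lines.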

O51F2 = system: T2, O51F2
T2 sequence (whole entry): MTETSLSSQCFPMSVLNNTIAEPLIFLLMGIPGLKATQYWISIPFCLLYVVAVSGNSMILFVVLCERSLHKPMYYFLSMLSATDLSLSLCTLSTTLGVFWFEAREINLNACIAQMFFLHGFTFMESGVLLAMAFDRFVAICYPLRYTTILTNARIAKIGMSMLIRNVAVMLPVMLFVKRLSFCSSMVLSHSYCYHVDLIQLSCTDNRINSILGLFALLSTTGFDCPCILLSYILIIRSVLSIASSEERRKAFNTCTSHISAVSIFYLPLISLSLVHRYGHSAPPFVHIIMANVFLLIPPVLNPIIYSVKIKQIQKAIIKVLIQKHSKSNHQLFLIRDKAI
Summary of the method: as §1

O51G1 = system: T3, O51G1
T3 sequence (whole entry): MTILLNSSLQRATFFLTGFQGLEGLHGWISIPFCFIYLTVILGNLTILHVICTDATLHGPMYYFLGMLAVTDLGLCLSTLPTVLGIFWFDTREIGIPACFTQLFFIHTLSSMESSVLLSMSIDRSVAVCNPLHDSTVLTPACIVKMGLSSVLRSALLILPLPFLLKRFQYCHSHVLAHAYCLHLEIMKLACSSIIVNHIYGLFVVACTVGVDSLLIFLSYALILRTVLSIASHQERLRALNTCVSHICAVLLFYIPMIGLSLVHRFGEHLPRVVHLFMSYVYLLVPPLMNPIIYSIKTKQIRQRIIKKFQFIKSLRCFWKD
Summary of the method: as §1

O51G2 = system: T4, O51G2
T4 sequence (whole entry): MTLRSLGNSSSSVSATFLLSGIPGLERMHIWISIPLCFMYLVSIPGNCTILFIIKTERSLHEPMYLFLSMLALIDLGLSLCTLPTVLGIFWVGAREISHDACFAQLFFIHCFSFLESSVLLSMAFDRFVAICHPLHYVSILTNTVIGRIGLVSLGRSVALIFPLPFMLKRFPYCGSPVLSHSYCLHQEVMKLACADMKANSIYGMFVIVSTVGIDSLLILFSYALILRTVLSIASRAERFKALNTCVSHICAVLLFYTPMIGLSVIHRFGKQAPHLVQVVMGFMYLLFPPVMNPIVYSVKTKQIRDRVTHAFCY
Summary of the method: as §1

O51J1 = system: T5, O51J1
T5 sequence (whole entry): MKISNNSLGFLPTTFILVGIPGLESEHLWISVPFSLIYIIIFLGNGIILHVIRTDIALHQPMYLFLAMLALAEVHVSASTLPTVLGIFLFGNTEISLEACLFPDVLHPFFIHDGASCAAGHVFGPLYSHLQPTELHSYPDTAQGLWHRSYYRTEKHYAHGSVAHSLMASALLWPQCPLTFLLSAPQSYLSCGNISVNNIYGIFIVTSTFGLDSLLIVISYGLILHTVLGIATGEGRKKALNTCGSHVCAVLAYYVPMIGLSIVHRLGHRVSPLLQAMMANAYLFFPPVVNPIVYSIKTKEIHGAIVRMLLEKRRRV
Summary of the method: as §1

O51L1 [1] = system: T6, O51L1
T6 sequence (whole entry): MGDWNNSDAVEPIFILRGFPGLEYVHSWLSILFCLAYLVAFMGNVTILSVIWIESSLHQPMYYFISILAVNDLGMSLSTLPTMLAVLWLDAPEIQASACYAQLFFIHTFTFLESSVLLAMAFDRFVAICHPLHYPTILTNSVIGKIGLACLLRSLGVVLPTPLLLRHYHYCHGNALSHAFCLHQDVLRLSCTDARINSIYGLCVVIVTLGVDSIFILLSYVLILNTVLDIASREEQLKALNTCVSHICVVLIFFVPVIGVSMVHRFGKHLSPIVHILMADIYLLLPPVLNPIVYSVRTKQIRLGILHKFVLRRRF
Summary of the method: as §1

O51L1 [2] = system: T7, O51L1; remark: listed apart in the source
T7 sequence (whole entry): T6 sequence (whole entry) with I196T, V207A, I281M
Summary of the method: as §1

O51M1 = system: T8, O51M1
T8 sequence (whole entry): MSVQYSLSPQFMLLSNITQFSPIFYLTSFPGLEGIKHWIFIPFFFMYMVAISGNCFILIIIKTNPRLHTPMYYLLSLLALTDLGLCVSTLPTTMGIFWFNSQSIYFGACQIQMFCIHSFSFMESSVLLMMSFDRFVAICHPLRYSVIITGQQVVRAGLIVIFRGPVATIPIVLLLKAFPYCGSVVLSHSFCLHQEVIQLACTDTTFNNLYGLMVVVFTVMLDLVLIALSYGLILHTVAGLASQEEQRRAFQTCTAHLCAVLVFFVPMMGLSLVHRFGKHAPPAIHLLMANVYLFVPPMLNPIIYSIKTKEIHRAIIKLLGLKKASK
Summary of the method: as §1

O51Q1 = system: T9, O51Q1
T9 sequence (whole entry): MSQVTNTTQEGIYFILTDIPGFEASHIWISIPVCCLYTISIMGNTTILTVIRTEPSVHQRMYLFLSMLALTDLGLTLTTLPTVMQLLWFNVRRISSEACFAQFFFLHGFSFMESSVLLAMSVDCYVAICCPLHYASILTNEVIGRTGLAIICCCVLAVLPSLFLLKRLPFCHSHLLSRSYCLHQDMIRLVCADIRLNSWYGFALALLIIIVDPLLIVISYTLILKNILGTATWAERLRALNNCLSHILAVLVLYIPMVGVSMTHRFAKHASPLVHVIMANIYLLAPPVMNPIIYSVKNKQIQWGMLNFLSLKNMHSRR
Summary of the method: as §1

O51T1 = system: T10, O51T1
T10 sequence (whole entry): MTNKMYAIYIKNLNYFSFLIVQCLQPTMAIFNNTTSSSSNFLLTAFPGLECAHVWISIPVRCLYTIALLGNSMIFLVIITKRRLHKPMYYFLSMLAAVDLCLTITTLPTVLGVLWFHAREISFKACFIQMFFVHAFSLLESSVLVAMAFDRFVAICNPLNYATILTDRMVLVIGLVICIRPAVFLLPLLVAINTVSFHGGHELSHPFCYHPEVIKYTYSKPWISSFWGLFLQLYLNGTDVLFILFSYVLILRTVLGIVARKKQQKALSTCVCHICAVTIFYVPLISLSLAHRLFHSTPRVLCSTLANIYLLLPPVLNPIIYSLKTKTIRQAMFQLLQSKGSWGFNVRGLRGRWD
Summary of the method: as §1

Measured: odorant receptor agonist call;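 note: active if original authors judged signal statistically different from baseline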

CS
inactive: O51F1 | O51F2 | O51G1 | O51G2 | O51J1 | O51L1 [1] | O51L1 [2] | O51M1 | O51Q1 | O51T1

CCC(C)=O
inactive: O51F1 | O51F2 | O51G1 | O51G2 | O51J1 | O51L1 [1] | O51L1 [2] | O51M1 | O51Q1 | O51T1

CCCCOC(C)=O
inactive: O51F1 | O51F2 | O51G1 | O51G2 | O51J1 | O51L1 [1] | O51L1 [2] | O51M1 | O51Q1 | O51T1
